The source of these data is patent US6555698B1, “Chemiluminescent substrates for neuraminidase, assays for detection of neuraminidase and kits therefor” (Tropix, Inc., priority 1998, dated 2003).

The data set can be described thus: Background noise of dioxetane stock in buffer, no enzyme (Experiments 1, 4, 5).
Setting [1] is: pH 10 AMP buffer, 31.5° C., no enzyme.

As for `COC1(c2ccc(Cl)c(O[C@]3(C(=O)[O-])C[C@H](O)[C@@H](NC(C)=O)[C@H]([C@H](O)[C@H](O)CO)O3)c2)OOC12C1CC3CC2CC(Cl)(C3)C1.[Na+]` (some centres unmarked) [dioxetane 489-102], for the setting “5 microliters dioxetane stock in 250 microliters glaxo pH 5.5 buffer, no enzyme”, the noise entry is “approximately 0.2 RLU”. Besides, where the note is “pH 7.7”, the “noise level relative to pH 5.5 (no enzyme)” value was 10 times. Moreover, under setting [1], the “noise after 20 minutes” value is listed as “approximately 1.3 RLU” and the “noise, maximum value” is “about 2.3 RLU”. Moreover, under “sodium phosphate buffer pH 7.7, 31.5° C., no enzyme”, the steady noise level result is “about 2 RLU”.
